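HEK-293 cells carrying an ATXN2-luciferase reporter; luminescence signal loss after 24 h of compound exposure, with a parallel cell viability readout. Compounds were tested as a dilution series from about 0.0037 to 57 µM. The number is the fitted half-maximal inhibitory concentration (AC50); a lower value means a more potent inhibitor. Calls come from curve class and activity score: actives score 40–100, while inconclusive compounds (weak, partial, poorly fitted or single-point curves) score 1–39.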

Values are in nM. All entries here are filed as inconclusive. Only part of the assay is shown, chiefly results filed as inconclusive. Potencies fitted to partial, single-point or poorly fitting curves are rough. Activity scores are not listed here.

CCOC(=O)Oc1c(OC)cc(C(=O)O[C@@H]2C[C@@H]3CN4CCc5c([nH]c6cc(OC)ccc56)[C@H]4C[C@@H]3[C@H](C(=O)OC)[C@H]2OC)cc1OC read Potency 19952 nM (inhibitor, partial curve, poor fit). COC(=O)c1cc(Cl)ccc1NCC(N)c1ccccc1 (centres undefined) gave Potency 28183 nM (inhibitor, single point). COc1ccc(C2CC(c3cccc(Br)c3)=NN2c2ccc(S(N)(=O)=O)cc2)cc1 (centres undefined) gave Potency 28183 nM (inhibitor, single point). Result for NC(=O)c1cccc(Nc2nc(C(N)Cc3ccc(C(F)(F)F)cc3)cs2)n1 (centres undefined) was Potency 7943 nM (inhibitor, single point). COc1ccc(CC(N)c2csc(NC(=O)c3cc(C(C)(C)C)nn3Cc3ccccc3)n2)cc1 (centres undefined) read Potency 4467 nM (inhibitor, single point). Result for O=C(Nc1ccc(N2CCN(C(=O)c3cccs3)CC2)c(Cl)c1)c1cccnc1 was Potency 25118 nM (inhibitor, partial curve, poor fit).

Result for Nc1ccc2cc3[nH]c4cc(N)ccc4c3nc2c1 was Potency 5012 nM (inhibitor, single point). Nc1c(C(=O)NCc2ccc3c(c2)OCO3)c2nc3ccccc3nc2n1CCCN1CCOCC1 gave Potency 22387 nM (inhibitor, partial curve, poor fit). Result for CC(C)N(C(=O)N1CCN(c2ccnc3cc(Cl)ccc23)CC1)C(C)C was Potency 17782 nM (inhibitor, partial curve, poor fit). Result for CC1Sc2ccc(S(=O)(=O)CCC(=O)N3CCN(c4cccc(Cl)c4)CC3)cc2NC1=O (centres undefined) was Potency 14125 nM (inhibitor, partial curve, poor fit). Result for CC1(C(=O)Nc2cnc3ccccc3c2)CCN1C(=O)c1ccccc1CCc1ccccc1 (centres undefined) was Potency 28183 nM (inhibitor, single point). For Cn1cc(/C=C/c2cc[n+](C)cc2)c2cc(F)ccc21 the result was Potency 17782 nM (inhibitor, single point).

For Cn1nnnc1Sc1ncnc2scc(-c3cccc(S(C)(=O)=O)c3)c12 the result was Potency 31622 nM (inhibitor, single point). For OC1(c2ccc(Br)cc2)CCNCC1 the result was Potency 1995 nM (inhibitor, partial curve, poor fit). N/C(=N\NC(=O)c1sccc1OCc1ccc(Cl)cc1Cl)c1ccccn1 gave Potency 14125 nM (inhibitor, partial curve, poor fit). For COc1ccc(Cl)cc1S(=O)(=O)N1CCN(C(=O)c2n[nH]c(=O)c3ccccc23)CC1 the result was Potency 3162 nM (inhibitor, single point). CC(=O)Oc1ccc(N(C(C)=O)S(=O)(=O)c2ccc(Cl)cc2)c2ccccc12 read Potency 28183 nM (inhibitor, single point). Result for CC(=O)c1cccc(NC(=O)c2cccc3c(-c4cccc(C(N)=O)c4)coc23)c1 was Potency 31622 nM (inhibitor, single point).

For O=C(/C=C/c1ccccc1[N+](=O)[O-])c1ccccc1Br the result was Potency 7943 nM (inhibitor, single point). With O=c1c2c3c(sc2ncn1/N=C/c1ccc([N+](=O)[O-])o1)CCCC3 the assay gave Potency 3548 nM (inhibitor, single point). COc1cccc(/C=C2/SC(=S)N(CCCC(=O)Nc3ccc(O)cc3)C2=O)c1 read Potency 3548 nM (inhibitor, single point). Result for Cc1ccc(NC(=O)c2ccc(-c3nn(C)c(=O)c4ccccc34)cc2)cc1 was Potency 3548 nM (inhibitor, partial curve, poor fit). With Cc1ccc2c(CC(=O)NNC(=O)c3ccccc3O)coc2c1 the assay gave Potency 2512 nM (inhibitor, partial curve). COc1ccc(C(NC(C)=O)c2cc(Cl)c3cccnc3c2O)cc1OC (centres undefined) gave Potency 3162 nM (inhibitor, full curve, poor fit).

For CC(=O)NC(=C(Cl)Cl)S(=O)(=O)c1ccccc1 the result was Potency 39810 nM (inhibitor, single point). Result for Cc1ccc(NC(=O)CN2C(=O)c3ccccc3S2(=O)=O)cc1C was Potency 35481 nM (inhibitor, single point).

3 of the entries, repeated:

- CC1(C(=O)Nc2cnc3ccccc3c2)CCN1C(=O)c1ccccc1CCc1ccccc1 (centres undefined) : Potency 28183 nM (inhibitor, single point)
- Nc1c(C(=O)NCc2ccc3c(c2)OCO3)c2nc3ccccc3nc2n1CCCN1CCOCC1 : Potency 22387 nM (inhibitor, partial curve, poor fit)
- COc1ccc(C2CC(c3cccc(Br)c3)=NN2c2ccc(S(N)(=O)=O)cc2)cc1 (centres undefined) : Potency 28183 nM (inhibitor, single point)

Data taken from PubChem BioAssay AID1745848, deposited by NCATS (2022).